Measured values as given in the supplement of paper PMC12889115.
Some of the results follow. Values are raw readings; no control value is given beside them.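 In the initial screen, polymyxin B was used at a concentration that permeabilizes Salmonella's outer membrane but not its inner membrane. Maximum growth was set by DMSO wells with or without polymyxin B. Since plates varied, data were ranked per plate, and compounds giving the lowest OD600 advanced as hits.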

Test system: Salmonella enterica serovar Typhimurium SL1344
Test: bacterial growth OD600 after 18 h with compound and polymyxin B; higher = more bacterial growth (less inhibition)
Details: 50 µM, Mueller-Hinton broth

SMILES | bacterial growth OD600 (polymyxin B 1 µg/mL) | bacterial growth OD600 (polymyxin B 0.75 µg/mL)
CN1CCC(Oc2ccc(C(=O)NC3CCCC3)cc2Cl)CC1 | 1.1 | –
Cc1ncc2c(c1CNC(=O)Cc1cccs1)CCN(C(=O)/C=C/c1cc(F)cc(F)c1)C2 | – | 0.756
CCOC(=O)C1(Cc2ccc(F)cc2F)CCCN(Cc2cnc(N(C)C)s2)C1 (stereo unspecified) | 0.994 | –
COc1cccc(C(=O)NCC2CCCN(CCCC3CCCC3)C2)c1OC (stereo unspecified) | – | 0.757
Cc1ccccc1-c1noc(-c2ccc(N(C)CCc3cn[nH]c3)nc2)n1 | – | 0.302
CCC(C)C(=O)NCC1Cc2cc(C)cc(-c3ccccn3)c2O1 (stereo unspecified) | – | 0.934
Cc1nc2cc(NC(=O)C3CC34CCN(C(=O)c3cccc(Cn5cccn5)c3)CC4)ccc2s1 (stereo unspecified) | – | 0.849
COc1ccc(CCN2CC(C(=O)NCCN3CCCC3=O)CCC2=O)cc1 (stereo unspecified) | 0.913 | –
Cc1n[nH]c(C)c1C(C)NC(=O)c1ccc2oc(-c3cccc(F)c3)nc2c1 (stereo unspecified) | – | 0.617
O=C(CC(c1cccc(O)c1)c1ccccc1Cl)N[C@H]1CC[C@H](O)CC1 (stereo partly specified) | 0.807 | –
COC(=O)c1ccccc1C(=O)N1CCCC(Nc2ccc(F)c(F)c2)C1 (stereo unspecified) | 0.746 | –
CCOc1ccc2nc(N3CCC(N4CCC[C@H]4C(=O)OC)CC3)nc(C)c2c1 | – | 0.821
CCOC(=O)C1(Cc2cccc(OC)c2)CCCN(Cc2cnn(CC)c2C)C1 (stereo unspecified) | 0.913 | –
CCCN1CCC(N2CCCCC2C(=O)Nc2ccc(Oc3ccccc3)nc2)CC1 (stereo unspecified) | – | 0.808
CC(c1ccon1)N(C)C(=O)CC1(c2ccc(-c3ccccc3)cc2)CC(=O)N(C)C1=O (stereo unspecified) | – | 0.003
CS(=O)(=O)N1CCC(Oc2ccc(C(=O)NC3CCCCCC3)cc2Cl)CC1 | 0.027 | –

Reformatted with each value named: 2 of the compounds above.
CCOC(=O)C1(Cc2ccc(F)cc2F)CCCN(Cc2cnc(N(C)C)s2)C1 (stereo unspecified)
  bacterial growth OD600 (polymyxin B 1 µg/mL): 0.994
COC(=O)c1ccccc1C(=O)N1CCCC(Nc2ccc(F)c(F)c2)C1 (stereo unspecified)
  bacterial growth OD600 (polymyxin B 1 µg/mL): 0.746

Following part

SMILES | bacterial growth OD600 (polymyxin B 1 µg/mL) | bacterial growth OD600 (polymyxin B 0.75 µg/mL)
CO[C@H]1[C@H](NC(=O)c2ccncc2)c2ccccc2C12CCN(C(=O)CCc1ccccc1)CC2 | – | 0.808
O=C(c1ccc(-c2ccccc2)[nH]c1=O)N1CCCC(CO)(Cc2ccc(F)cc2)C1 (stereo unspecified) | 1 | –
O=C(CCC1(Cc2ccc3ccccc3c2)CCC(=O)N1)NCCc1ccc(C(F)(F)F)cc1 (stereo unspecified) | – | 0.983
Cc1ccccc1CN1CCN(Cc2ccccc2F)C(CCO)C1 (stereo unspecified) | 1.16 | –
CC[C@@]1(C(=O)OC)C[C@H](C(=O)NC(C)(C)CO)[C@H](c2ccc(OC)cc2)N1C | – | 0.819
CC1CCN(C(=O)CC2(c3ccc(-c4ccccc4)cc3)CC(=O)N(C)C2=O)CC1 (stereo unspecified) | – | 0.003
CCOC(=O)C1CCCN(C(=O)c2cc(COc3ccccc3F)[nH]n2)C1 (stereo unspecified) | – | 0.763
O=C(Nc1cccc(-n2cccn2)c1)C1CCCN1C1CCCCC1 (stereo unspecified) | 0.886 | –
O=C1CC(NS(=O)(=O)N2CCOCC2)CN1CCc1ccccc1 (stereo unspecified) | 0.93 | –
COc1ccc(F)c(CC2(CCC(=O)NCC3CCCN(c4ncccn4)C3)CCC(=O)N2)c1 (stereo unspecified) | – | 0.852
Cc1cc(Cl)ccc1C(=O)C1CCCN(C(=O)CCc2ccc3c(c2)OCO3)C1 (stereo unspecified) | 0.647 | –
O=C(CCc1cccc(Cl)c1)NC1CCCN(CCc2ccccc2)C1 (stereo unspecified) | 1.24 | –
COC(=O)C1CCCCN1C(=O)C1CCCN(c2nc(C)c3ccc(S(C)(=O)=O)cc3n2)C1 (stereo unspecified) | – | 0.799
Cc1nc(-c2ccncc2)ncc1C(C)NC1CCCCC1 (stereo unspecified) | – | 0.788
CCN1CCN(C2(C(=O)N3CCC(COC)C3)Cc3ccccc3C2)CC1 (stereo unspecified) | – | 0.785
